Laboratory results taken from patent publication US20230357722A1, “METHODS FOR IDENTIFYING MODULATORS OF NATURAL KILLER CELL INTERACTIONS” (The Johns Hopkins University, priority 2020, published 2023).
At least one compound was matched to its structure with a doubt left.

System: tumor-exposed NK cell-MMTV-PyMT tumor cluster co-culture
Experiment: teNK cell-MMTV-PyMT tumor cluster co-culture colony formation assay
Format: cell-based, mouse
Conditions: teNK cells pretreated with DNMT inhibitor at 1 μM for 24 hours before co-culture; FIG. 5C
Excerpt: The capacity of candidate immunotherapies to reverse the effect of teNK cells on colony formation was investigated. Anti-PD-1 therapy has been reported to restore the function of anergic NK cells (Hsu J, et al. J Clin Invest. 2018; 128(10):4654-68). […] Targeted receptors were next identified in the RNA expression analysis, specifically TIGIT and KLRG1. TIGIT is an emerging immune checkpoint on NK cells and T cells and anti-TIGIT therapies are in clinical trials (Zhang Q, et al. Blockade of the checkpoint receptor TIGIT prevents NK cell exhaustion and elicits potent anti-tumor immunity. Nat Immunol. 2018; 19(7):723-32). KLRG1, a marker of senescent NK cells and T cells and a recently reported inhibitor of NK cell function (Muller-Durovic B, et al. J Immunol. 2016; 197(7):2891-9), was highly expressed by teNK cells. […] The broad gene expression differences between hNK and teNK cells provided the motivation to identify epigenetic regulators of NK cell state. […] Experiments were then carried out seeking to validate the functional significance of these findings in the co-culture models. […] It was assessed whether the combination of FDA approved DNA methyltransferase inhibitors and anti-TIGIT or anti-KLRG1 would prevent colonies from being formed in co-culture. […]

SMILES: Nc1ncn([C@H]2C[C@H](O)[C@@H](CO)O2)c(=O)n1 [decitabine]
- colony formation (normalized colony count): neutralized the effect of teNK cells in co-culture
